{"source": "patent US8710062B2", "about": "“Piperazinedione compounds” (Taipei Medical University, priority 2011, dated 2014)", "tested_on": "human HL-60 promyelocytic leukemia xenograft", "experiment": "HL-60 xenograft in SCID mice", "conditions": "5 mg/kg (q2d to end)", "note": "Structures can show the parent of a compound that is named as a salt. At least one structure is not confirmed: it was looked up by name or label, or the drawing left a doubt.", "data": [{"smiles": "O=c1[nH]/c(=C\\c2ccc(OCc3ccncc3)cn2)c(=O)[nH]/c1=C\\c1ccccc1", "note": "[Compound 2, 3-benzylidene-6-((5-(pyridin-4-ylmethoxy)pyridin-2-yl)methylene)piperazine-2,5-dione methanesulfonic acid salt]", "values": [{"measurement": "antitumor activity against HL-60 xenograft (in words)", "result": "potent antitumor activity"}]}]}
